{
  "source": "patent US9145375B2",
  "about": "“Quinazolinone compounds” (PRANA BIOTECHNOLOGY LIMITED, priority 2008, dated 2015)",
  "key": {"[1]": {"system": "generation of hydrogen peroxide (H2O2) by iron", "experiment": "H2O2 Inhibition Assay", "assay_type": "biochemical", "protocol": "Assay 1. H2O2 Inhibition Assay.\n(§1) This fluoresence assay evaluates the ability of a test compound to inhibit the generation of hydrogen peroxide (H2O2) by iron in the presence of a reducing substrate such as ascorbic acid. In the assay, iron in the form of FeCl3 or copper is allowed to react with ascorbic acid by incubating for 1 hr at 37° C. in the presence of the fluorescing compound DCF and horseradish peroxidase. H2O2 generated by the system is assessed by measuring the specific fluorescence profile at the excitation and emission wavelengths of 485 and 530 nm respectively, in the presence of increasing concentrations of test compound. Test compounds are ranked according to their capacity to inhibit H2O2 generated by the system where lower values reflect greater ability to inhibit H2O2 production."}, "Fe-DA": {"system": "Fe-DA", "experiment": "H2O2 assay, Fe-DA (% cf. Fe 0.4 μM/DA 50 μM)", "assay_type": "biochemical", "protocol": "as §1"}},
  "note": "At least one structure is not confirmed: it was looked up by name or label, or the drawing left a doubt.",
  "data": [
    {"molecule": "O=c1c2c(Cl)cc(Cl)c(O)c2nc(CN2CCOCC2)n1CC1CC1", "note": "[Compound F4384]", "values": [
      {"measurement": "IC50", "setting": "[1]", "result": 2150, "unit": "nM"},
      {"measurement": "Fe-DA % cf. Fe 0.4 μM/DA 50 μM", "setting": "Fe-DA", "result": 59, "unit": "%"}
    ]}
  ]
}
